Literature values as cited in patent publication US8679459B2, “B ring reduced-D ring oxidized tetrapyrrolic photosensitizers for photodynamic therapy and tumor imaging” (Health Research, Inc., priority 2008, dated 2014).
At least one structure is not confirmed: it was looked up by name or label, or the drawing left a doubt.

Conditions: cited from earlier work

In the case of CC[C@H]1c2cc3[n-]c4c(c3C)C(=O)[C@H](C(=O)OC)c4c3nc(cc4[n-]c(cc(n2)[C@@H]1C)c(C(C)=O)c4C)[C@@H](C)[C@@H]3CCC(=O)O.[Pd+2] [WST09, Pd(II) complex of bacteriopheophorbide a], the singlet oxygen generating is listed as 100%.
